Measured values as given in patent US10500198B2, “Bis-benzylidine piperidone proteasome inhibitor with anticancer activity” (The Johns Hopkins University, priority 2013, dated 2019).
For at least one compound, name, drawing or mass did not settle the structure.

Assay: Pharmacokinetic measurements, plasma
Type: in vivo, mouse
Details: 10 mg/kg i.p., mice
Experimental: Tissue was harvested at 48 hr after single-dose intraperitoneal administration in non-tumor bearing mice. Blood was collected by cardiac puncture under anesthesia into heparinized syringes and centrifuged to obtain plasma. Tissues were rapidly dissected and snap frozen in liquid nitrogen. Samples were stored frozen at −70° C. until analysis. […] Tissue homogenates were prepared at a concentration of 200 mg/mL in PBS and further diluted 1:10 in mouse plasma before extraction using acetonitrile containing temazepam (100 ng/mL). Separation was achieved on Waters X-Terra™ C18 (50 mm×2.1 mm i.d., 3 μm) at room temperature using isocratic elution with acetonitrile/water mobile phase (70:30, v/v) containing 0.1% formic acid at a flow rate of 0.2 mL/min. […] Samples were quantitated over the assay range of 10 to 1000 ng/mL or 0.6 to 60 μg/g. […] Cmax and Tmax were the observed values from the mean data. The AUClast was calculated using the log-linear trapezoidal rule to the end of sample collection (AUClast) and extrapolated to infinity (AUC0-∞) by dividing the last quantifiable concentration by the terminal disposition rate constant (λz), which was determined from the slope of the terminal phase of the concentration-time profile. The half-life (T1/2) was determined by dividing 0.693 by λz. Relative bioavailability was calculated as follows: […]

Cl.N[C@@H](Cc1ccccc1)C(=O)N1CC(=Cc2ccc(Cl)c(Cl)c2)C(=O)C(=Cc2ccc(Cl)c(Cl)c2)C1 [RA190, 3,5-bis(3,4-dichlorobenzylidene)-1-(S-2-amino-3-phenyl)-piperidin-4-one-HCl salt]
time of peak plasma levels (Cmax): 2 h
